Measured values taken from PubChem BioAssay AID445 (National Center for Advancing Translational Sciences (NCATS), 2006).
This is one part of the list. The main result of the screen is listed elsewhere. These columns were measured beside it and carry no call. The list favours compounds with an active or inconclusive main result. The note in brackets gives the kind of curve behind each potency; many fits are weak.

Assay: IkB Signaling
Conditions: ABC-DLBCL IkBa-CBG/CBR dual luciferase ratio (green luciferase fused to IkBa over red control in OCI-Ly3 lymphoma cells), 4 h
Outline: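 Luminescence ratio of IκBα-fused green versus native red beetle luciferase in OCI-Ly3 cells, 4 h post-doxycycline with compound; red signal alone, scaled from basal (0%) to zero light (-100%), flagged nonspecific or cytotoxic effects.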

[1] = measured here: control luc red channel unless noted

For `CS(=O)(=O)Nc1ccc(Cc2ccc(NS(C)(=O)=O)cc2)cc1`, which AC50 [1] is on record?
The AC50 was 25.1 µM [falling, partial curve].

With `Cc1ccc(CCNC(=O)C(C)n2nc(C)c3c(C)n(-c4ccc(C)cc4)nc3c2=O)cc1` (stereo not drawn) as the compound, how does the AC50 [1] read?
Its AC50 is 15.8 µM [falling, partial curve].

Which AC50 [1] does the source give for `CCc1ccc(C2CC(=O)c3c([nH]c(C(=O)OC4CCCCCC4)c3C)C2)cc1` (stereo not drawn) here?
The AC50 was 2 µM [rising, full curve].

For `CC(=O)c1ccc(NC(=O)COc2ccccc2-c2nc(C(C)C)no2)cc1`, which AC50 [1] is on record?
Its AC50 is 15.8 µM [falling, partial curve].

Which AC50 [1] does the source give for `OCc1cn(-c2ccccc2)nc1-c1ccc2c(c1)OCCO2` here?
Its AC50 is 20 µM [falling, single point].

Which AC50 [1] does the source give for `COc1ccc(C)cc1Nc1c2c(nc3ccccc13)CCC2` here?
Its AC50 is 6.31 µM [rising, single point].

With `O=C(c1ccc(Cl)cc1)N1CCC(c2nc(-c3cccs3)no2)CC1` as the compound, how does the AC50 (measured here: IkB-luc green channel) read?
Its AC50 is 25.1 µM [falling, partial curve].

And the AC50 (measured here: control luc red channel)?
The AC50 was 15.8 µM [falling, partial curve].

Which AC50 [1] does the source give for `O=C(COc1ccccc1)Nc1nnc2n1CCS2` here?
The AC50 was 0.126 µM [falling, single point].

For `CC(C)(C)C(=O)Cn1c(=O)n(CCCCCC(=O)NCc2ccccc2Cl)c(=O)c2sccc21`, which AC50 [1] is on record?
The AC50 was 10 µM [falling, partial curve].

With `COc1cc(OC)cc(-c2nc3nc(C)c(CCC(=O)Nc4ccccc4)c(C)n3n2)c1` as the compound, how does the AC50 [1] read?
Its AC50 is 25.1 µM [falling, partial curve].

Which AC50 [1] does the source give for `CCC(=O)Nc1ccc(C)cc1-c1nc2ccccc2n(CC(=O)c2ccc(C)cc2)c1=O` here?
Its AC50 is 10 µM [falling, single point].

With `CC(C)(C)OC(=O)N1CCC(c2c(C(=O)NCc3ccco3)cnn2-c2ccc(F)cc2F)CC1` as the compound, how does the AC50 [1] read?
The AC50 was 12.6 µM [falling, partial curve].

Which AC50 [1] does the source give for `Cc1noc2ncnc(N3CCCC(C(=O)Nc4cc(F)ccc4F)C3)c12` (stereo not drawn) here?
The AC50 was 3.98 µM [falling, partial curve].

With `COc1ccccc1NC(=O)C1=C(C)Nc2nc(-c3ccco3)nn2C1c1cccc(C)c1` (stereo not drawn) as the compound, how does the AC50 [1] read?
The AC50 was 31.6 µM [falling, partial curve].

Which AC50 [1] does the source give for `CCOC(=O)c1c(C)c(C(=O)NCc2ccc(Cl)cc2)c(C)n1C` here?
The AC50 was 1.58 µM [rising, full curve, poor fit].

For `CCc1ccc(-n2c(=O)c3c(C)c(C(=O)N(C)C)sc3n(CC(=O)Nc3cc(Cl)ccc3C)c2=O)cc1`, which AC50 [1] is on record?
Its AC50 is 0.00631 µM [rising, full curve].

Which AC50 [1] does the source give for `CCOCC(=O)Nc1ccc(F)c(F)c1` here?
The AC50 was 2.51 µM [falling, full curve].
